Test results taken from article PMC13042514.

By UniProt entry, the sequences of proteins in these tests, tags left out. Where a name states a change or a piece, a line headed by the entry shows the natural chain unless it says otherwise.
UniProt P51116, whole entry: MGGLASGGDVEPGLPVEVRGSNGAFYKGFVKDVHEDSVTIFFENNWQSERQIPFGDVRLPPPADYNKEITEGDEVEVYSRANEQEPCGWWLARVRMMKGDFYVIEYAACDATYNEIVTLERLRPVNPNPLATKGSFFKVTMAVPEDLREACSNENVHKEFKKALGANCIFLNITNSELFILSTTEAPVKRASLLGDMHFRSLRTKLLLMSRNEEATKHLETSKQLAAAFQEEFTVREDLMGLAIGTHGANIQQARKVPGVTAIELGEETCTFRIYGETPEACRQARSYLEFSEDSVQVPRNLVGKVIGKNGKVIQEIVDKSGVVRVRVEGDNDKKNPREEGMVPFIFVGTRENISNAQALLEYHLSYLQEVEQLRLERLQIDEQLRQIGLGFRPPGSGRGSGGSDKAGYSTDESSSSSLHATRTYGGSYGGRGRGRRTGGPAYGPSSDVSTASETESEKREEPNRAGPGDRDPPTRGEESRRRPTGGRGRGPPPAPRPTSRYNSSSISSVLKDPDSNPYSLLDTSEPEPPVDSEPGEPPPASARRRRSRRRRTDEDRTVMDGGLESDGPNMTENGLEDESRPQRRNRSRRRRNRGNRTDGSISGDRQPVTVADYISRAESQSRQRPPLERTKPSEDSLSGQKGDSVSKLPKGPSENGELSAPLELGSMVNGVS
UniProt Q5T7N2: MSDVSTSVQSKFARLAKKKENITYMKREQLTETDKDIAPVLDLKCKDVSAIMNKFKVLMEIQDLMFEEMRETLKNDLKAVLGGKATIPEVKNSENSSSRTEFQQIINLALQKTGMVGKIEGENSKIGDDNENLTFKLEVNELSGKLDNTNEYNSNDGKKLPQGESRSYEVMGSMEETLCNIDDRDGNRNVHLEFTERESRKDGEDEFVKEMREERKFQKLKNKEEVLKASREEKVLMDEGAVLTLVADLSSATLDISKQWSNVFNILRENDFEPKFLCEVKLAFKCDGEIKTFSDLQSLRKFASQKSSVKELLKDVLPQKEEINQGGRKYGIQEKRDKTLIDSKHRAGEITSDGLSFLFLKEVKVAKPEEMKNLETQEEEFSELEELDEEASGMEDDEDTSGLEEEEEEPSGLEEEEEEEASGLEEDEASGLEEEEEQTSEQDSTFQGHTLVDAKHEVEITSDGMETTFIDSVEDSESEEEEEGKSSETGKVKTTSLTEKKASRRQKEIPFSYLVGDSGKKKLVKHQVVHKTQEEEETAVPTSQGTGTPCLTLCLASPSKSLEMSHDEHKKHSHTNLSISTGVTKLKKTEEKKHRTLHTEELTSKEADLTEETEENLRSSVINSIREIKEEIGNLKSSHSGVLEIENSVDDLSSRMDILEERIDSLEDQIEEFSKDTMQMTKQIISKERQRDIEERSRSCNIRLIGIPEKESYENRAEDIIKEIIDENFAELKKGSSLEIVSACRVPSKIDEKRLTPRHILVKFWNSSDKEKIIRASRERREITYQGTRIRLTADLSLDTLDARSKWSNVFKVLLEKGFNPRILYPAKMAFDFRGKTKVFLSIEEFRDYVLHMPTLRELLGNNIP

Columns and labels:
[1] = molecular target: FXR2 (endogenous) (Homo sapiens) (UniProt P51116); assay: pull-down; settings: pull-down: Pierce 20164 kit, 50 pmol RNA, 200 ug total protein, 4 C 30-60 min, protein in an extract, label: 3' desthiobiotin
[2] = molecular target: T1, DDX6 (endogenous) (Homo sapiens) (UniProt P26196); assay: pull-down; settings: pull-down: Pierce 20164 kit, 50 pmol RNA, 200 ug total protein, 4 C 30-60 min, protein in an extract, label: 3' desthiobiotin
T1 sequence (looked up, limits assumed): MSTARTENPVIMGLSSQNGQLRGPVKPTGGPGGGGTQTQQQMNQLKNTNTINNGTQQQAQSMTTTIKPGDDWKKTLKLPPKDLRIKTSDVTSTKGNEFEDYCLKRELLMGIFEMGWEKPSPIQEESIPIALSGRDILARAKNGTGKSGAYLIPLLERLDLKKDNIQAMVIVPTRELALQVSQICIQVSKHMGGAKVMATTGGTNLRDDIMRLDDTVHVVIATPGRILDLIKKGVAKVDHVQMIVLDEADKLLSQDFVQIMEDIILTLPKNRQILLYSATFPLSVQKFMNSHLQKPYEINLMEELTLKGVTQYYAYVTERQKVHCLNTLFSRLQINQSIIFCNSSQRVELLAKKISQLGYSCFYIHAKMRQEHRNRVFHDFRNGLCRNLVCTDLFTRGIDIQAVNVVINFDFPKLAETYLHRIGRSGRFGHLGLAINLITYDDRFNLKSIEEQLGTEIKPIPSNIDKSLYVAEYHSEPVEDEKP

[3] = molecular target: T2, FUBP3 (endogenous) (Homo sapiens) (UniProt Q96I24); assay: pull-down; settings: pull-down: Pierce 20164 kit, 50 pmol RNA, 200 ug total protein, 4 C 30-60 min, protein in an extract, label: 3' desthiobiotin
T2 sequence (looked up, limits assumed): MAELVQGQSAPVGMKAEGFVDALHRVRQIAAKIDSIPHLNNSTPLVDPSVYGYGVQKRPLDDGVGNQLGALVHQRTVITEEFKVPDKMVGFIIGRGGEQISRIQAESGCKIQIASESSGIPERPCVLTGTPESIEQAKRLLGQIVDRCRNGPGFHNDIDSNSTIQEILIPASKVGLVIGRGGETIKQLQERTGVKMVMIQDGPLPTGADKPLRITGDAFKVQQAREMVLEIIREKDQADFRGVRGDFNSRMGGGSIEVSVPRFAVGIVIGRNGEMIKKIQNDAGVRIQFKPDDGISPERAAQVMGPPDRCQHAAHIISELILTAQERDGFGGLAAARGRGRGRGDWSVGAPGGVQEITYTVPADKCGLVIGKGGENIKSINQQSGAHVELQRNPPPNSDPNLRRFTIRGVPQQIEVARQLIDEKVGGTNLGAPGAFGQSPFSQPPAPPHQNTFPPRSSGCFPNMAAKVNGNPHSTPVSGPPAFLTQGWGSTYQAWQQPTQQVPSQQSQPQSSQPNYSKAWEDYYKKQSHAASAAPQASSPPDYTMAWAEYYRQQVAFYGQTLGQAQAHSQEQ

[4] = molecular target: L1TD1 (endogenous) (Homo sapiens) (UniProt Q5T7N2); assay: pull-down; settings: hESC extract; m6A at positions 9 and 15; pull-down: Pierce 20164 kit, 50 pmol RNA, 200 ug total protein, 4 C 30-60 min; protein in an extract; label: 3' desthiobiotin
GST-L1TD1 = GST-L1TD1 (UniProt Q5T7N2); assay: EMSA; settings: text: markedly reduced or absent, legend: not bound; EMSA: Beyotime GS606 kit binding buffer (composition not given), 1 ug protein and 1 uL of 2.5 nM biotin probe in 10 uL, on ice 10 min; recombinant protein; protein details: GST; label: biotin
GST-FUBP3 = molecular target: T3, GST-FUBP3 (UniProt Q96I24); assay: EMSA; settings: text: markedly reduced or absent, legend: not bound; EMSA: Beyotime GS606 kit binding buffer (composition not given), 1 ug protein and 1 uL of 2.5 nM biotin probe in 10 uL, on ice 10 min; recombinant protein; protein details: GST; label: biotin
T3 sequence (looked up, limits assumed): T2 sequence (looked up, limits assumed)

GST-FXR2 = GST-FXR2 (UniProt P51116); assay: EMSA; settings: text: markedly reduced or absent, legend: not bound; EMSA: Beyotime GS606 kit binding buffer (composition not given), 1 ug protein and 1 uL of 2.5 nM biotin probe in 10 uL, on ice 10 min; recombinant protein; protein details: GST; label: biotin
GST-DDX6 = molecular target: T4, GST-DDX6 (UniProt P26196); assay: EMSA; settings: text: markedly reduced or absent, legend: not bound; EMSA: Beyotime GS606 kit binding buffer (composition not given), 1 ug protein and 1 uL of 2.5 nM biotin probe in 10 uL, on ice 10 min; recombinant protein; protein details: GST; label: biotin
T4 sequence (looked up, limits assumed): T1 sequence (looked up, limits assumed)

[5] = A549 and hESC extract, m6A at positions 9 and 15
[6] = A549 extract, m6A bait bound instead of the control

CGUCUCGGACUCGGACUGCU [ss-m6A (pull-down)]
binding result [1, 5]: binds
binding result [2, 5]: binds
binding result [3, 5]: binds
binding result [4]: binds

CGUCUCGGACUCGGACUGCU [ss-A (EMSA)]
binding result (GST-L1TD1): binds more weakly
binding result (GST-FUBP3): binds more weakly
binding result (GST-FXR2): binds more weakly
binding result (GST-DDX6): binds more weakly

CGUCUCGGACUCGGACUGCU [ss-A (pull-down)]
binding result [1, 6]: binds more weakly
binding result [2, 6]: binds more weakly
binding result [3, 6]: binds more weakly

Construct, isoform or probe ends are uncertain for at least one entry. For some assays here: The comparison behind a weaker result is the experiment's own reference, which may not be listed here. For some assays here: Tags and fusion partners may be left off the protein sequences shown. For some assays here: At least one result comes from cells or an extract, where the contact may be indirect.
